Values joined by “and” are separate entries in the source; they are usually repeats but may differ in a detail not shown here. Identical values can stand only once. Square brackets hold non-standard residues; d marks the D form. * marks the point of attachment. 2Nal = N[C@@H](Cc1ccc2ccccc2c1)C(=O)O; Fmoc = O=C(OCC1c2ccccc2-c2ccccc21)*; 3Pal = N[C@@H](Cc1cccnc1)C(=O)O; αMeK = C[C@](N)(CCCCN)C(=O)O; Cbz = O=C(OCc1ccccc1)*; Boc = CC(C)(C)OC(=O)*; OtBu = CC(C)(C)O*; Sar = CNCC(=O)O
Test: general procedure: solution-phase peptide synthesis; EDCI/ethyl cyanoglyoxylate-2-oxime; EDCI/HOAt; DIC/Oxyma B; PyAOP/DIPEA
Settings: for final HPLC purity / crude HPLC purity: UPLC
[1] = late stage modification step, one disulfide bridge, sequence written open

Ac-Pen(Trt)-Asn-Thr(tBu)-Trp(7Me)-Lys(Ac)-Pen(Acm)-Tyr(2-Boc-ea)-2Nal-Gly(THP)-Glu(tBu)-Asn-3Pal-Sarc-NH2
final HPLC purity (coupling step): 92% | step yield (coupling step, assay corrected): 86%

Ac-Pen(Trt)-Asn-Thr(tBu)-Trp(7Me)-Lys(Ac)-Pen(acm)-Tyr(2-Boc-ea)-2Nal-αMe-Lys(Boc)-Lys(Ac)-Asn-D-Leu-NH2 (S—S, 1-6)
step yield (coupling step): 100% | crude HPLC purity (coupling step): 93.3%

Ac-Pen-Asn-Thr(tBu)-Trp(7Me)-Lys(Ac)-Pen-Tyr(2-Boc-ea)-2Nal-Gly(THP)-Glu(tBu)-Asn-3Pal-Sarc-NH2
final HPLC purity (coupling step, run 1): 99.1% UPLC purity and 99.3% UPLC purity | step yield (coupling step, run 1): 37.9% yield and 51.4% yield

Ac-Pen-Asn-Thr-Trp(7Me)-Lys(Ac)-Pen-Tyr(2-ea)-2-Nal2Nal-Gly(THP)-Glu-Asn-3-Pal3Pal-Sarc-NH2
final HPLC purity [1]: 95% | step yield [1]: 89%

Ac-Pen-Asn-Thr-Trp(7Me)-Lys(Ac)-Pen-Tyr(2-ea)-2Nal-Gly(THP)-Glu-Asn-3Pal-Sarc-NH2
final HPLC purity [1]: 97.8% UPLC purity | step yield [1]: 84.4% yield

Ac-Pen-Asn-Thr-Trp(7Me)-Lys(Ac)-Pen-Tyr(2-ea)-2Nal-αMe-Lys-Lys(Ac)-Asn-D-Leu-NH2 (S—S, 1-6)
crude HPLC purity (late stage modification step): 92.3% | step yield (purification step, HCl salt): 78.8% | final HPLC purity (purification step, HCl salt): 95.8% | final HPLC purity (purification step, acetate): 96.9% | step yield (purification step, acetate): 98.0%

Cbz-E(OtBu)N[3Pal][Sar]-NH2
step yield (coupling step): 71% | crude HPLC purity (coupling step): 98% | final HPLC purity (coupling step): 99% | step yield (coupling step, overall): 55%

Cbz-Glu(tBu)-Asn-3Pal-Sarc-NH2
step yield (coupling step): 77.5% yield | final HPLC purity (coupling step): 100% UPLC purity

Fmoc-Gln(Trt)-Thr(tBu)-Trp-Gln(Trt)-Cys-OMe-((S)-4-Abu-D-Arg(Pbf)-Ac)-OAll
step yield (coupling step): 101.4% | crude HPLC purity (coupling step): 81.5%

Fmoc-Gln(Trt)-Thr(tBu)-Trp-Gln(Trt)-Cys-OMe-((S)-4-Abu-D-Arg(Pbf)-Ac)—OH
step yield (late stage modification step): 97.2% | crude HPLC purity (late stage modification step): 84.6%

Fmoc-[2Nal][αMeK](Boc)K(Ac)N[dL]-NH2
step yield (coupling step): Yield 77%

H-2Nal-Gly(THP)-Glu(tBu)-Asn-3-3Pal-Sarc-NH2
step yield (late stage modification step): 93% | final HPLC purity (late stage modification step): 93.5%

H-2Nal-Gly(THP)-Glu(tBu)-Asn-3Pal-Sarc-NH2
step yield (late stage modification step): 99.3% yield | crude HPLC purity (late stage modification step): 99.2% HPLC purity

H-E(OtBu)N[3Pal][Sar]-NH2
step yield (late stage modification step): 93% | final HPLC purity (late stage modification step): 96%

H-Glu(tBu)-Asn-3Pal-Sarc-NH2
step yield (late stage modification step): 94.4% yield | crude HPLC purity (late stage modification step): 98.0% UPLC purity

H-[2Nal][αMeK](Boc)K(Ac)N[dL]-NH2
step yield (coupling step): Yield 96%

— patent publication US20240218014 (published 2024)
